Data taken from publication PMC12120245.
These are yes or no findings as the source states them, for the method shown. Binding seen in cells or lysates may run through a third protein. Here binding means that the protein was enriched with, or labelled near, the bait; the list need not be complete.

The chains behind the UniProt entries cited, without tags or fusion partners. Where a name states a change or a piece, a line headed by the entry shows the natural chain unless it says otherwise.
UniProt Q15652: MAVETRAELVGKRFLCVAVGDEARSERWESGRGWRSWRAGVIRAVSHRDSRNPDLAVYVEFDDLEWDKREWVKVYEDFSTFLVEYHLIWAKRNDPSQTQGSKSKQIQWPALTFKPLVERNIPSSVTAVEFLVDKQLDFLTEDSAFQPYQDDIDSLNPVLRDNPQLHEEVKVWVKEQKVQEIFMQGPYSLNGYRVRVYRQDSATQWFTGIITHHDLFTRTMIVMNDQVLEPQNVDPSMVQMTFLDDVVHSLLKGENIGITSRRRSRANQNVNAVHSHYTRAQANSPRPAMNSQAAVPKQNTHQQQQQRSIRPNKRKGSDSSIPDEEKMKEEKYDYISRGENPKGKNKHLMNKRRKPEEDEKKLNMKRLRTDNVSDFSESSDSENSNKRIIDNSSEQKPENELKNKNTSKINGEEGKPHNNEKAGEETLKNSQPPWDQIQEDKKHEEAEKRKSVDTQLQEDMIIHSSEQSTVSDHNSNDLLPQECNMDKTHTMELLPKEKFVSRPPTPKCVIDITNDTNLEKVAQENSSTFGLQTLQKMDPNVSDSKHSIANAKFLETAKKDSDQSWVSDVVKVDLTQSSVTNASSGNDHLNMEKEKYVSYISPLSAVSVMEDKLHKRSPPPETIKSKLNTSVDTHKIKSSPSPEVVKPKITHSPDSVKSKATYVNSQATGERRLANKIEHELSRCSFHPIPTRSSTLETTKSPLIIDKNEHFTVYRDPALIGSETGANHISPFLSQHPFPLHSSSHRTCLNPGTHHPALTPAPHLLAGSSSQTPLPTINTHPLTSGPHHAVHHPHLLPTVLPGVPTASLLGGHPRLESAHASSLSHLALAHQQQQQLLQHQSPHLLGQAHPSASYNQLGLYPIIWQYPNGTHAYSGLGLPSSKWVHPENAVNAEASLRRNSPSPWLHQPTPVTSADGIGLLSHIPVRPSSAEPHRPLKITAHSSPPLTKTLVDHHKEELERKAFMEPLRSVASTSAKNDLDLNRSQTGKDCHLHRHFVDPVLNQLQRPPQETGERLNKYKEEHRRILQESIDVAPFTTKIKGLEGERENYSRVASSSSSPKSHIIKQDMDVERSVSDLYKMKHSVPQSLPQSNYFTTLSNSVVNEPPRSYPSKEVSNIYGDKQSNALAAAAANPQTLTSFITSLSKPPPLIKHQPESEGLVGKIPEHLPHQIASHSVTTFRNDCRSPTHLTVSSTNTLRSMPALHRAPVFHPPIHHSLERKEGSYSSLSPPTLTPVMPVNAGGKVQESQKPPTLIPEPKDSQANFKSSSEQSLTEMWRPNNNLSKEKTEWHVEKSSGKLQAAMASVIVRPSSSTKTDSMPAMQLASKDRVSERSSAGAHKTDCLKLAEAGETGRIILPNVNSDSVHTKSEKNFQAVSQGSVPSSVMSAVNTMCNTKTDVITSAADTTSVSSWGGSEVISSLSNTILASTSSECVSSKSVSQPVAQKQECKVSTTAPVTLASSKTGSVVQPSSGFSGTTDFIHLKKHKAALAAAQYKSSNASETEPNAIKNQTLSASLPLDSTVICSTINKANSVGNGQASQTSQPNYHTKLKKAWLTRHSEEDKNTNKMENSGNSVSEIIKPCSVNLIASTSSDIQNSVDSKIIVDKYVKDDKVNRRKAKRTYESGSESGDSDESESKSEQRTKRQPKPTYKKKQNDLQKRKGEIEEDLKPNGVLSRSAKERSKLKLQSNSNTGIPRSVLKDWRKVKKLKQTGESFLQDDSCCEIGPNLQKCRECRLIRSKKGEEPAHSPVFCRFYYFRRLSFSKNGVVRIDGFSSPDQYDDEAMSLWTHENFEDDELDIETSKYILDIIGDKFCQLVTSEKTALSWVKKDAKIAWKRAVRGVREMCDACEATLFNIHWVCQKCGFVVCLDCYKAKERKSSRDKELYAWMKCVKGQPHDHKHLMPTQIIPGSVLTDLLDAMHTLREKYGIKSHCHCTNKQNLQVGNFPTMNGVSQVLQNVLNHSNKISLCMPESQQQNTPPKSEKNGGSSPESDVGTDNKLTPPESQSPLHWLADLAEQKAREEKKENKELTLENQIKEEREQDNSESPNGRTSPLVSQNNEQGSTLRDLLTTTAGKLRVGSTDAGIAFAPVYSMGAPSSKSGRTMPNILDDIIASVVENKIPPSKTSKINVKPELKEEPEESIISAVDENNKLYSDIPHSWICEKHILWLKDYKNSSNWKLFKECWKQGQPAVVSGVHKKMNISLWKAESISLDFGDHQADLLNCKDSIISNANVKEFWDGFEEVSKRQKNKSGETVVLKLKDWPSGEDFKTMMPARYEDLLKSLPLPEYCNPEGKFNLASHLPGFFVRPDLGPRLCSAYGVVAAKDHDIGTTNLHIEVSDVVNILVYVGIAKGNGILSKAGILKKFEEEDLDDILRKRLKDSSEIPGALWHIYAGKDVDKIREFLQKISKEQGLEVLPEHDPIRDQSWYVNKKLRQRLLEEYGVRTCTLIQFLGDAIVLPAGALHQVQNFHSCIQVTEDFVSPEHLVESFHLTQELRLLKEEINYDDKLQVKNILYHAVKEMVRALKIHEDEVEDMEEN
UniProt Q01196: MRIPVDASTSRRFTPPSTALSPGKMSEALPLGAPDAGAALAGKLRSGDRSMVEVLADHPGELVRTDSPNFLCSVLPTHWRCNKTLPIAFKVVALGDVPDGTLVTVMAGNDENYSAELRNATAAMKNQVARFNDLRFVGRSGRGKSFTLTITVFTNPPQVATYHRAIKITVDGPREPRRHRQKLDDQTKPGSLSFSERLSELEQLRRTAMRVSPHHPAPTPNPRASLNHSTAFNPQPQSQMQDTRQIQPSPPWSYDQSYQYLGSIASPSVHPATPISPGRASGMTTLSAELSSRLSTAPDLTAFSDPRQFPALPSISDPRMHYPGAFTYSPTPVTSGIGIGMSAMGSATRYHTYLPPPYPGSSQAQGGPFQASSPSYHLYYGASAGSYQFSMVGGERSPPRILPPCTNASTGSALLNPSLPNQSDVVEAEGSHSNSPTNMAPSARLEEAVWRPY

Biological target: JMJD1C (Jumonji Domain Containing 1C) (human (endogenous in AML cell lines)) (UniProt Q15652)
Assay: affinity purification with mass spectrometry; IgG or custom-made JMJD1C antibody with nuclear extracts of NB-4, HL-60, Kasumi-1 and MOLM-13 cells; BC150 plus 0.1% Triton X-100, overnight, 4°C; SDS-PAGE, LC-MS/MS

binding: binds
Substance: RUNX1 (AML1) (from UniProt Q01196 1-453)
